From publication PMC5133968
Read-outs that look alike come from different tables or passages of the source. Results are given in words; binding and its absence hold for the method and conditions named. Binding seen in cells or lysates may run through a third protein. Some binding calls cover weakened binding; strength is not graded here. Each block holds one molecule with its values, some of them ahead of it.

Amino acid sequences for entries named in this document (tags omitted).
UniProt Q16513: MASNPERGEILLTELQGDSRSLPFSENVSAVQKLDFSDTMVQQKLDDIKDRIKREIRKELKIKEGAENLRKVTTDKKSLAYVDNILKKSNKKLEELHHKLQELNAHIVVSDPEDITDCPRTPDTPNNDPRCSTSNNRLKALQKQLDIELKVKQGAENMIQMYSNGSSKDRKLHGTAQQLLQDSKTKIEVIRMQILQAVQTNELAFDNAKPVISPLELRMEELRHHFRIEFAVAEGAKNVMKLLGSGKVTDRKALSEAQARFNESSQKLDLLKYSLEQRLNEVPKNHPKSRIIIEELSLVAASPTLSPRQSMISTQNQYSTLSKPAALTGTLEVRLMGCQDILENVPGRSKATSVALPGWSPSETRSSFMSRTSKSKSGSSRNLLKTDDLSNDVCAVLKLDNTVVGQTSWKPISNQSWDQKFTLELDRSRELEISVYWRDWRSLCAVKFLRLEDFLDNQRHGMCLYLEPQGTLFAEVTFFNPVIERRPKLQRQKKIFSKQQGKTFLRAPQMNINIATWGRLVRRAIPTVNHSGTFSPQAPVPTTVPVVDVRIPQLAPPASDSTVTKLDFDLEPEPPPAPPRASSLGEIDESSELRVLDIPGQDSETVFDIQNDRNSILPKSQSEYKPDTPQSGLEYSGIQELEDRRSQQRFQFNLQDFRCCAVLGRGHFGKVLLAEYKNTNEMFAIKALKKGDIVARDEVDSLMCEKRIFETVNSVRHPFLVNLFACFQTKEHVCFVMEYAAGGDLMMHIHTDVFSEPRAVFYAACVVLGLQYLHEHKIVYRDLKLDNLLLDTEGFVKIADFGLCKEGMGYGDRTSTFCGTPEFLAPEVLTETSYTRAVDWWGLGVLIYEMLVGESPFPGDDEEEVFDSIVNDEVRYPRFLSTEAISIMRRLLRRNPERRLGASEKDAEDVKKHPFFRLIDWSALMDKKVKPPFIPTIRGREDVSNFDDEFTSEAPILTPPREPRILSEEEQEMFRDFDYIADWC
UniProt Q8BWW9: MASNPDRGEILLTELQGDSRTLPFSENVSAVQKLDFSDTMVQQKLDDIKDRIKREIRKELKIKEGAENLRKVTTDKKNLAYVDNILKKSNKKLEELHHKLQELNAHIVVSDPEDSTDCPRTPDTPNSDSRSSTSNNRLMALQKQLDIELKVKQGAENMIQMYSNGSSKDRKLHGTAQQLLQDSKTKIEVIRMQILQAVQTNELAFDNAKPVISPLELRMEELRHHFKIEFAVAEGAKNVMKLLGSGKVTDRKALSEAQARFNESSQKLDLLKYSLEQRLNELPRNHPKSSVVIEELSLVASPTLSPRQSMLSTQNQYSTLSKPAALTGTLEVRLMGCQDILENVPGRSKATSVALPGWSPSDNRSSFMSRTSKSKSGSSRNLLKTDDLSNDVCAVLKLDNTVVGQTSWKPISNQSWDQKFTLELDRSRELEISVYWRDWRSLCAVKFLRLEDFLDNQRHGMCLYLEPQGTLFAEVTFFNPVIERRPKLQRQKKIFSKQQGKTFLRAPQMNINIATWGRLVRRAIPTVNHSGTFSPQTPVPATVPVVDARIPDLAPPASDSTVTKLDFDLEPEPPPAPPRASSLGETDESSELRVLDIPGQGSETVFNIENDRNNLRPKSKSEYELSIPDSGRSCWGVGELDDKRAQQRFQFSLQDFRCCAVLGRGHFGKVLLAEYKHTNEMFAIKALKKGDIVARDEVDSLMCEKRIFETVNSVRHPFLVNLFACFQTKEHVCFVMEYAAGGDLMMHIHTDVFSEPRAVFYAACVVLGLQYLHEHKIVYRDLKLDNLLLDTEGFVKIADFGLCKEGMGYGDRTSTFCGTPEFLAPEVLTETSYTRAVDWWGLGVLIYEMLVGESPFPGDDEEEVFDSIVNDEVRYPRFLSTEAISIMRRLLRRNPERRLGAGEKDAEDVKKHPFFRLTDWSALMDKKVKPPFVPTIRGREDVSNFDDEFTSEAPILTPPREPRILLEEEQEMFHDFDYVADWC

Legend:
[1] = biological target: T1, Cdo, endogenous in C2C12 myoblasts (mouse (endogenous in C2C12)) (UniProt Q32MD9); test: co-IP; endogenous proteins; lysates of C2C12 cells in growth medium (D0) or differentiation medium for the indicated times (D1, D2) immunoprecipitated with Cdo antibodies (Figures 2c, 5c)
T1 sequence: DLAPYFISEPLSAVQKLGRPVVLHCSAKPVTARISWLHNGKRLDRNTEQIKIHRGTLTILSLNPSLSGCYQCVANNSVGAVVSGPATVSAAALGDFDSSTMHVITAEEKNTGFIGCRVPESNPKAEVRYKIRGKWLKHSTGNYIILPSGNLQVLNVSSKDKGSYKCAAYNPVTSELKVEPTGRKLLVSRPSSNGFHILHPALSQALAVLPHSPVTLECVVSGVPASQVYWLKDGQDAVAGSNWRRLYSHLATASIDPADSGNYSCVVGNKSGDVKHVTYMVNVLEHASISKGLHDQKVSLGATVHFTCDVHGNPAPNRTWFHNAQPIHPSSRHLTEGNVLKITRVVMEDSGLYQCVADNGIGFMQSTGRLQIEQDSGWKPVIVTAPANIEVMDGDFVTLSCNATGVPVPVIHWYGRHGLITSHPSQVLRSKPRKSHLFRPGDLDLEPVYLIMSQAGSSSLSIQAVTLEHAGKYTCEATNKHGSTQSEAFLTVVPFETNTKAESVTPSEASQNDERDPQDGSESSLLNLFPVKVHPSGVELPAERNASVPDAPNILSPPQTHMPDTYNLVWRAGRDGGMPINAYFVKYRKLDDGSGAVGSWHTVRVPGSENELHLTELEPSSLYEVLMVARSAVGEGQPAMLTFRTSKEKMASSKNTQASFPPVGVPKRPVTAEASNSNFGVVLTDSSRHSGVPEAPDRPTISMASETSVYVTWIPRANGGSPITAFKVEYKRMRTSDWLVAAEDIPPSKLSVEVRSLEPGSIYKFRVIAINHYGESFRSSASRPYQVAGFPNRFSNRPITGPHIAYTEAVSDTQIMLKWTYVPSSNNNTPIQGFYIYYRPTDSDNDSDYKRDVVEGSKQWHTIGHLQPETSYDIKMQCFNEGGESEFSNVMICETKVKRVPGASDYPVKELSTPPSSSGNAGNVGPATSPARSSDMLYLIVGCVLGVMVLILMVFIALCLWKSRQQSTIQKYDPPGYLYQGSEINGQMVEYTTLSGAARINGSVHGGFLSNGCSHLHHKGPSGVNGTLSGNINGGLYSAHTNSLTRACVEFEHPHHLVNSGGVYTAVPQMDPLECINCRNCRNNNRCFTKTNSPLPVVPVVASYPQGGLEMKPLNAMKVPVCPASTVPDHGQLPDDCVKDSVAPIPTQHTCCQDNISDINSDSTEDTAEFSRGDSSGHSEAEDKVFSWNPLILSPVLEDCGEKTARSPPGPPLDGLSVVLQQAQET

[2] = biological target: T1, Cdo, endogenous in C2C12 myoblasts (mouse (endogenous in C2C12)); test: as above; remark: listed apart in the source
[3] = biological target: PKN2 (protein kinase C-related kinase 2), expression vector with no tag named (human) (UniProt Q16513); test: co-IP; 293T cells transiently co-transfected; lysates immunoprecipitated with PKN2 antibodies, blotted for Cdo (Figure 2e) or HA (Figure 5b)
[4] = biological target: HA-PKN2 (human) (UniProt Q16513); test: co-IP; 293T cells co-transfected; whole cell extracts incubated with anti-HA and protein G agarose overnight at 4 °C, washed three times; blotted for Cdo (Figure 2b) or PKN2 (Figure 4b)

B1: APPL1, endogenous in C2C12 myoblasts (protein, UniProt Q8K3H0 1-707)
chain: MPGIDKLPIEETLEDSPQTRSLLGVFEEDATAISNYMNQLYQAMHRIYDAQNELSAATHLTSKLLKEYEKQRFPLGGDDEVMSSTLQQFSKVIDELSSCHAVLSTQLADAMMFPISQFKERDLKEILTLKEVFQIASNDHDAAINRYSRLSKKRENDKVKYEVTEDVYTSRKKQHQTMMHYFCALNTLQYKKKIALLEPLLGYMQAQISFFKMGSENLNGQLEEFLANIGTSVQNVRREMDGDVETMQQTIEDLEVASDPLYLPDPDPTKFPINRNLTRKAGYLNARNKTGLVSSTWDRQFYFTQGGNLMSQARGDVAGGLAMDIDNCSVMAVDCEDRRYCFQITSFDGKKSSILQAESKKDHEEWICTINNISKQIYLSENPEETAARVNQSALEAVTPSPSFQQRHESLRPGGQSRPPTARTSSSGSLGSESTNLAALSLDSLVAPDTPIQFDIISPVCEDQPGQAKAFGQGGRRTNPFGESGGSTKSETEDSILHQLFIVRFLGSMEVKSDDHPDVVYETMRQILAARAIHNIFRMTESHLLVTCDCLKLIDPQTQVTRLTFPLPCVVLYATHQENKRLFGFVLRTSGGRSESNLSSVCYIFESNNEGEKICDSVGLAKQIALHAELDRRASEKQKEIERVKEKQQKELSKQKQIEKDLEEQSRLIAASSRPNQAGSEGQLVLSSSQSEESDLGEEGKKRESEA
binding [2]: binds

B2: Cdo (cell adhesion molecule-related downregulated by oncogene), full length (receptor, UniProt O35158 25-1256)
chain: DLATYFISEPLSAVQKLGRPVVLHCSAKPVTARISWLHNGKRLDRNTEQIKIHRGTLTILSLNPSLSGCYQCVANNSVGAVVSGPATVSADALADFDSSTMHVITAEKKNTGFIGCRVPESNPKAEVRYKIRGKWLMYSTGNYIILPSGNLQILNVSSKDKGSYKCAAYNPVTSELKVEPAGRKLLVSRPSSDGFHILHPALSQALAVLPHSPVTLECVVSGVPASQVYWLKDGQDCLSGSNWRRLYSHLATASIDPADSGNYSCVVGNNSSGDVKHVTYTVNVLEHASISKGLHDQKVSLGATVRFTCEVHGNPAPNRTWFHNAQPIRPSSRHLTEGSVLKITGVIMEDSGLYQCMADNGIGFMQSTGRLQIEQDSGQRPVIVTAPANVEVTDGDFVTLSCNATGEPVPVIHWYGRHGLITSHPSQVLRSKSRKSHLFRPGDLDPEPVYLIMSQAGSSSLSIQAVTREHAGKYTCEAVNKHGSTQSEAFLTVVPFETNTKAEPVTPSEASQNDERDPRDGSESGLLNLFPVKVHSGGVELPAEKNASVPDAPNILSPPQTHMPDTYTLVWRTGRDGGMPINAYFVKYRKLDDGSGAVGSWHTVRVPGSESELHLTELEPSSLYEVLMVARSAVGEGQPAMLTFRTSKEKMASSKNTQASFPPVGIPKRPVTSEASNSNFGVVLTDSSRHSGVPEAPDRPTISMASETSVYVTWIPRANGGSPITAFKVEYKRMKSSDWLVAAEDIPPSKLSVEVRSLEPGSIYKFRVIVINHYGESFRSSASRPYQVAGFPNRFSNRPITGPHIAYTEAVSDTQIMLKWTYIPSSNNNTPIQGFYIYYRPTDSDNDSDYKRDVVEGSKQWHTIGHLQPETSYDIKMQCFNEGGESEFSNVMICETKVKRVPGASEYPMKELSTPPSSSGNGGNVGPATSPARSSDMLYLIVGCVLGVMVLILLVFIALCLWKSRQQSAIQKYDPPGYLYQGSEINGQMVEYTTLSGTARINGSVHGGFLSKGSLSNGCSHLHHKGPNGVNGILNGTINGGLYSAHTSSLTRTCVEFEHPHHLVNGGAVYTAVPQMDPLECINCRNCRNNNRCFTKTNSPLPVVPVVASYPQDGLEMKPLGVMKFPVCPVSTVPDGGQIPEECLKDSVAPAPTQRTCRQDNTSDINSDSTEDTAEFNRGDSSGHSEAEDKVFSWSPLILSPVLEDCSEKTAWSPPGPPLDGLSVVLQQAQET
binding [3]: binds | binding [4]: binds

B3: CdoΔ1035-1160 (receptor, UniProt O35158)
chain: DLATYFISEPLSAVQKLGRPVVLHCSAKPVTARISWLHNGKRLDRNTEQIKIHRGTLTILSLNPSLSGCYQCVANNSVGAVVSGPATVSADALADFDSSTMHVITAEKKNTGFIGCRVPESNPKAEVRYKIRGKWLMYSTGNYIILPSGNLQILNVSSKDKGSYKCAAYNPVTSELKVEPAGRKLLVSRPSSDGFHILHPALSQALAVLPHSPVTLECVVSGVPASQVYWLKDGQDCLSGSNWRRLYSHLATASIDPADSGNYSCVVGNNSSGDVKHVTYTVNVLEHASISKGLHDQKVSLGATVRFTCEVHGNPAPNRTWFHNAQPIRPSSRHLTEGSVLKITGVIMEDSGLYQCMADNGIGFMQSTGRLQIEQDSGQRPVIVTAPANVEVTDGDFVTLSCNATGEPVPVIHWYGRHGLITSHPSQVLRSKSRKSHLFRPGDLDPEPVYLIMSQAGSSSLSIQAVTREHAGKYTCEAVNKHGSTQSEAFLTVVPFETNTKAEPVTPSEASQNDERDPRDGSESGLLNLFPVKVHSGGVELPAEKNASVPDAPNILSPPQTHMPDTYTLVWRTGRDGGMPINAYFVKYRKLDDGSGAVGSWHTVRVPGSESELHLTELEPSSLYEVLMVARSAVGEGQPAMLTFRTSKEKMASSKNTQASFPPVGIPKRPVTSEASNSNFGVVLTDSSRHSGVPEAPDRPTISMASETSVYVTWIPRANGGSPITAFKVEYKRMKSSDWLVAAEDIPPSKLSVEVRSLEPGSIYKFRVIVINHYGESFRSSASRPYQVAGFPNRFSNRPITGPHIAYTEAVSDTQIMLKWTYIPSSNNNTPIQGFYIYYRPTDSDNDSDYKRDVVEGSKQWHTIGHLQPETSYDIKMQCFNEGGESEFSNVMICETKVKRVPGASEYPMKELSTPPSSSGNGGNVGPATSPARSSDMLYLIVGCVLGVMVLILLVFIALCLWKSRQQSAIQKYDPPGYLYQGSEINGQMVEYTTLSGTARINGSVHGGFLGQIPEECLKDSVAPAPTQRTCRQDNTSDINSDSTEDTAEFNRGDSSGHSEAEDKVFSWSPLILSPVLEDCSEKTAWSPPGPPLDGLSVVLQQAQET
binding [3]: no binding

Other lines, results leading:

binding [1]: binds
Molecule: PKN2, endogenous in C2C12 myoblasts (from UniProt Q8BWW9 1-983) (enzyme)

binding [3]: no binding
B4: CdoΔ1160-1256 (receptor, UniProt O35158)
chain: DLATYFISEPLSAVQKLGRPVVLHCSAKPVTARISWLHNGKRLDRNTEQIKIHRGTLTILSLNPSLSGCYQCVANNSVGAVVSGPATVSADALADFDSSTMHVITAEKKNTGFIGCRVPESNPKAEVRYKIRGKWLMYSTGNYIILPSGNLQILNVSSKDKGSYKCAAYNPVTSELKVEPAGRKLLVSRPSSDGFHILHPALSQALAVLPHSPVTLECVVSGVPASQVYWLKDGQDCLSGSNWRRLYSHLATASIDPADSGNYSCVVGNNSSGDVKHVTYTVNVLEHASISKGLHDQKVSLGATVRFTCEVHGNPAPNRTWFHNAQPIRPSSRHLTEGSVLKITGVIMEDSGLYQCMADNGIGFMQSTGRLQIEQDSGQRPVIVTAPANVEVTDGDFVTLSCNATGEPVPVIHWYGRHGLITSHPSQVLRSKSRKSHLFRPGDLDPEPVYLIMSQAGSSSLSIQAVTREHAGKYTCEAVNKHGSTQSEAFLTVVPFETNTKAEPVTPSEASQNDERDPRDGSESGLLNLFPVKVHSGGVELPAEKNASVPDAPNILSPPQTHMPDTYTLVWRTGRDGGMPINAYFVKYRKLDDGSGAVGSWHTVRVPGSESELHLTELEPSSLYEVLMVARSAVGEGQPAMLTFRTSKEKMASSKNTQASFPPVGIPKRPVTSEASNSNFGVVLTDSSRHSGVPEAPDRPTISMASETSVYVTWIPRANGGSPITAFKVEYKRMKSSDWLVAAEDIPPSKLSVEVRSLEPGSIYKFRVIVINHYGESFRSSASRPYQVAGFPNRFSNRPITGPHIAYTEAVSDTQIMLKWTYIPSSNNNTPIQGFYIYYRPTDSDNDSDYKRDVVEGSKQWHTIGHLQPETSYDIKMQCFNEGGESEFSNVMICETKVKRVPGASEYPMKELSTPPSSSGNGGNVGPATSPARSSDMLYLIVGCVLGVMVLILLVFIALCLWKSRQQSAIQKYDPPGYLYQGSEINGQMVEYTTLSGTARINGSVHGGFLSKGSLSNGCSHLHHKGPNGVNGILNGTINGGLYSAHTSSLTRTCVEFEHPHHLVNGGAVYTAVPQMDPLECINCRNCRNNNRCFTKTNSPLPVVPVVASYPQDGLEMKPLGVMKFPVCPVSTVPD
